One assay concerns the target T1, GST-BTG3, full length (UniProt Q14201).
T1 sequence: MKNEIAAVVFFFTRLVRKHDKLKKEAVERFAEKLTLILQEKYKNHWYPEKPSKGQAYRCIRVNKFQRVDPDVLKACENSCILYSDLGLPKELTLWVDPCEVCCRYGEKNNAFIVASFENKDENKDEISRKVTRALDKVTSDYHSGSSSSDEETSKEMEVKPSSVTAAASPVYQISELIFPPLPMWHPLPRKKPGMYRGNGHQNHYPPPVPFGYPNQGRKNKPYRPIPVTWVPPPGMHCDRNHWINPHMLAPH
The assay can be described thus: pull-down; recombinant GST-BTG3 proteins (full length, N-terminal or C-terminal domain) as bait with 293T lysates expressing HA-HIF-1α; only the target purified.

Chains of the proteins cited; added tags and fusions are not shown.
UniProt Q16665: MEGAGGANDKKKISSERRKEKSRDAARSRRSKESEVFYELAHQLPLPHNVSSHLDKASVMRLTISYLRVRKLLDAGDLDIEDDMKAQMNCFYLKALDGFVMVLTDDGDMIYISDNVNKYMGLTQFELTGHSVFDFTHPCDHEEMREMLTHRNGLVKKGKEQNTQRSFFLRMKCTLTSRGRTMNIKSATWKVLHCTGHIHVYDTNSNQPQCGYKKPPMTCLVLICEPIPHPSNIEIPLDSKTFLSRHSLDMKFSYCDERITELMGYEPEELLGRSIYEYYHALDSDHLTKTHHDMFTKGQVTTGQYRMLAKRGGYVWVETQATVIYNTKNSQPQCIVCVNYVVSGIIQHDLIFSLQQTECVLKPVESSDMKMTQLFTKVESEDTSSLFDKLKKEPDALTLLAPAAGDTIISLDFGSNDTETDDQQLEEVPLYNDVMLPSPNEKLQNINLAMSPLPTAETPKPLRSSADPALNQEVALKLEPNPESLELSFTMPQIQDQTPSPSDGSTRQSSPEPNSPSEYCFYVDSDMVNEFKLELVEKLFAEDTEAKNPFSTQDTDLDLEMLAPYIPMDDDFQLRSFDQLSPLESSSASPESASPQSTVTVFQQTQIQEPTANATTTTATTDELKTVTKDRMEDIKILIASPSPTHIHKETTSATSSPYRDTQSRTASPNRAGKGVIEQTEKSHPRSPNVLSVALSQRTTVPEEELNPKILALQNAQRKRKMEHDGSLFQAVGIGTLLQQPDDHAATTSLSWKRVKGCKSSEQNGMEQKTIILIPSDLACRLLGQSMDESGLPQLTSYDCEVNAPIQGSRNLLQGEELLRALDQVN

Assay [1] addresses HA-tagged HIF-1α, full length (human) (UniProt Q16665). Briefly: co-IP; 293T cells co-transfected with HA-HIF-1α (full length or mutant) and myc-BTG3; lysates in CSK buffer (10 mM PIPES pH 7.0, 100 mM NaCl, 0.1% Triton-X-100) immunoprecipitated with anti-HA or anti-myc and protein G resin, 1.5 h at 4 °C.

These are yes or no findings as the source states them, for the method shown. Binding seen in cells or lysates may run through a third protein. Some entries that bind do so weakly or less than the wild type. Where a sequence is shown, tags or fusion partners need not be part of it.

Turning to “HA-tagged HIF-1α, full length (from UniProt Q16665 1-826)”, in the assay with GST-BTG3, full length, the binding result is given as “binds”.

B1: myc-tagged BTG3 (protein, UniProt Q14201 1-252)
chain: T1 sequence
On to B1, for which the binding result in assay [1] is on record as “binds”.

For the origin of these results see article PMC7732837.
